{"source": "PubChem BioAssay AID662", "about": "(National Center for Advancing Translational Sciences (NCATS), 2007)", "note": "The list shows a part of the results. Further columns of the screen follow, without active or inactive calls. The list favours compounds with an active or inconclusive main result. Words in brackets tell the shape of the fitted curve; partial curves, single points and poor fits give uncertain potencies.", "data": [{"experiment": "Cell signaling CRE-BLA (Fsk stim)", "conditions": "CHO CRE-bla reporter (cAMP response element driving beta-lactamase), forskolin EC10, beta-lactamase ratio; measured here: 460 nm blue channel", "in_short": "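AC50 values, positive or negative, reflect shifts in EC10 NKH 477-induced CRE-bla reporter activity in CHO cells. Incubation lasted 3 h at 37 °C before CCF4 substrate (2 h, room temperature) and ratiometric 460/530 nm reading.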", "values": [{"smiles": "CCOC(=O)c1ccc(N2C(=O)CC(N3CC=C(c4ccc(F)cc4)CC3)C2=O)cc1", "note": "(configuration not stated)", "AC50": "12.6 µM [falling, single point]"}, {"smiles": "CC(=NCCN1CCOCC1)c1c(O)n(C2CCCCC2)c(=O)[nH]c1=O", "AC50": "5.01 µM [falling, single point]"}, {"smiles": "CN(CCc1ccc(Cl)c(Cl)c1)[C@H]1CCCC[C@H]1N1CCCC1", "AC50": "10 µM [falling, partial curve, poor fit]"}, {"smiles": "COP(=S)(OC)SCn1nnc2ccccc2c1=O", "AC50": "10 µM [falling, partial curve]"}, {"smiles": "CC12CCCCC1=NC(c1ccc(Br)cc1)N2O", "note": "(configuration not stated)", "AC50": "0.794 µM [falling, partial curve, poor fit]"}, {"smiles": "CCC(=NCC1CCCO1)c1c(O)n(Cc2ccccc2)c(=O)[nH]c1=O", "note": "(configuration not stated)", "AC50": "15.8 µM [rising, partial curve]"}, {"smiles": "Cc1nc2ccccc2n1C1CCN(Cc2nnnn2CCc2ccccc2)CC1", "AC50": "10 µM [rising, partial curve]"}, {"smiles": "COc1ccc(CC2c3cc(OC)c(OC)cc3CCN2C)cc1OC", "note": "(configuration not stated)", "AC50": "25.1 µM [rising, single point]"}, {"smiles": "CC(C)CCOC(=O)c1c(N)n(CC2CCCO2)c2nc3ccccc3nc12", "note": "(configuration not stated)", "AC50": "15.8 µM [rising, single point]"}, {"smiles": "CCC/C=C(\\CCC)C(NP(=O)(c1ccccc1)c1ccccc1)c1ccccc1", "note": "(configuration not stated)", "AC50": "25.1 µM [falling, single point]"}, {"smiles": "COc1ccc(CCn2c(O)c(C=NC3CC3)c(=O)[nH]c2=O)cc1OC", "AC50": "10 µM [rising, single point]"}, {"smiles": "CCC12CN3CCN(CC(C3)/C1=N\\O)C2", "AC50": "0.0631 µM [rising, full curve]"}, {"smiles": "CCOC(=O)c1c(N)n(CCCOC(=O)c2ccco2)c2nc3ccccc3nc12", "AC50": "12.6 µM [rising, partial curve]"}, {"smiles": "CCn1c(=O)cc(SCC(=O)N2CCC3(CC2)OCCO3)c2ccccc21", "AC50": "10 µM [rising, partial curve, poor fit]"}, {"smiles": "Cc1ccc(Cn2nnnc2CN2CCC(n3nnc4cc(C)ccc43)CC2)cc1", "AC50": "10 µM [rising, single point]"}, {"smiles": "CCC(=O)OC1(c2cccc(C)c2)CC(C)N(C)CC1C", "note": "(configuration not stated)", "AC50": "0.1 µM [falling, partial curve, poor fit]"}, {"smiles": "COC(=O)/C=C\\C(=O)N[C@@H]1CC[C@@]2(O)[C@H]3Cc4ccc(O)c5c4[C@@]2(CCN3CC2CC2)[C@@H]1O5", "AC50": "20 µM [falling, partial curve, poor fit]"}, {"smiles": "Nc1ccncc1", "AC50": "25.1 µM [falling, partial curve, poor fit]"}, {"smiles": "Cc1ccc(CS(=O)(=O)Cc2ccc(C(=O)N3CCC4(CC3)OCCO4)o2)cc1", "AC50": "0.00316 µM [falling, partial curve, poor fit]"}, {"smiles": "CCCCn1c(O)c(C=NCCCn2ccnc2)c(=O)[nH]c1=O", "AC50": "10 µM [falling, partial curve]"}, {"smiles": "NS(=O)(=O)c1ccc(N=Cc2c(O)n(C3CCCCC3)c(=O)n(C3CCCCC3)c2=O)cc1", "AC50": "10 µM [falling, single point]"}, {"smiles": "Cl.Cl.Cl.Cl.Cl.Cl.N.N.N.N.NNNNN.NNNNN.O.O.[Ru].[Ru].[Ru]", "AC50": "31.6 µM [falling, single point]"}, {"smiles": "COC1=C(C)C(=O)c2c(c(COC(N)=O)c3n2C[C@@H]2[C@@H]3N2C)C1=O", "note": "(some centres not stated)", "AC50": "0.1 µM [rising, full curve]"}, {"smiles": "N[C@H](C(=O)O)c1cc(=O)[nH]o1", "AC50": "31.6 µM [falling, single point]"}, {"smiles": "Cn1c(O)c(C(=NCCN2CCCCC2)c2ccccc2Cl)c(=O)n(C)c1=O", "AC50": "6.31 µM [rising, partial curve]"}, {"smiles": "Cc1[nH]c2ccc(O)cc2c1CCN", "AC50": "25.1 µM [falling, single point]"}, {"smiles": "CC(C)CCNC(=O)c1c(N)n(CC2CCCO2)c2nc3ccccc3nc12", "note": "(configuration not stated)", "AC50": "2.51 µM [falling, full curve]"}, {"smiles": "Clc1ccc2c(N3CCNCC3)ccnc2c1", "AC50": "5.01 µM [falling, full curve]"}, {"smiles": "O=C(O)CCCc1ccc(N(CCCl)CCCl)cc1", "AC50": "25.1 µM [rising, partial curve]"}, {"smiles": "CN1C(=O)CCS(=O)(=O)[C@H]1c1ccc(Cl)cc1", "AC50": "15.8 µM [falling, single point]"}, {"smiles": "Cn1c(O)c(/C=N/c2ccccn2)c(=O)n(C)c1=O", "AC50": "0.398 µM [falling, partial curve]"}, {"smiles": "ClC1=C(Cl)C2(Cl)C3C(Cl)C=CC3C1(Cl)C2(Cl)Cl", "note": "(configuration not stated)", "AC50": "3.98 µM [rising, partial curve]"}, {"smiles": "CN1CCC(c2c[nH]c3ccc(O)cc23)CC1", "AC50": "20 µM [falling, partial curve, poor fit]"}, {"smiles": "CC(C)CC(NC(=O)C1CCCCC1)C(=O)N1CCC2(CC1)OCCO2", "note": "(configuration not stated)", "AC50": "2 µM [falling, partial curve]"}, {"smiles": "O=C(Cc1ccccc1)N1CCN(Cc2c[nH]c3ccccc23)CC1", "AC50": "0.794 µM [falling, partial curve, poor fit]"}, {"smiles": "C=CC(=O)OCCO", "AC50": "20 µM [falling, partial curve, poor fit]"}, {"smiles": "O=P(O)(O)Cc1ccccc1OP(=O)(c1ccccc1)c1ccccc1", "AC50": "25.1 µM [rising, single point]"}, {"smiles": "Oc1cc(Cl)c(Cl)c(Cl)c1Cl", "AC50": "25.1 µM [falling, partial curve]"}, {"smiles": "Cn1c(O)c(C=NCCOc2ccc(Cl)cc2)c(=O)n(C)c1=O", "AC50": "10 µM [rising, partial curve]"}, {"smiles": "Nc1ccc([N+](=O)[O-])cc1N", "AC50": "20 µM [falling, partial curve, poor fit]"}, {"smiles": "CCOC(=O)C(O)(c1ccc(NC(=O)c2ccco2)c(OC)c1)C(F)(F)F", "note": "(configuration not stated)", "AC50": "12.6 µM [rising, partial curve]"}, {"smiles": "c1cncc(CNC2=NCCC2)c1", "AC50": "3.98 µM [falling, partial curve]"}, {"smiles": "Cc1[nH]c2ccccc2c1/C=N/O", "AC50": "6.31 µM [falling, partial curve]"}, {"smiles": "CCC(=NCc1ccc(F)cc1)c1c(O)n(C)c(=O)n(C)c1=O", "AC50": "10 µM [rising, single point]"}, {"smiles": "CP(C)(=O)CCC(=O)O", "AC50": "0.00316 µM [falling, full curve, poor fit]"}, {"smiles": "CC(C)C[C@H]1C(=O)N2CCC[C@@H]2[C@@]2(O)O[C@](NC(=O)[C@@H]3C=C4c5cccc6[nH]cc(c56)C[C@@H]4N(C)C3)(C(C)C)C(=O)N12", "AC50": "3.98 µM [rising, partial curve]"}, {"smiles": "C[C@]1(C(=O)O)[C@@H]2CC[C@@H](O2)[C@@]1(C)C(=O)O", "AC50": "0.398 µM [rising, full curve, poor fit]"}, {"smiles": "c1ccc2c(CCNC3=NCCC3)c[nH]c2c1", "AC50": "3.98 µM [falling, partial curve, poor fit]"}, {"smiles": "CN1CCN(C(=O)O[C@@H]2c3nccnc3C(=O)N2c2ccc(Cl)cn2)CC1", "AC50": "10 µM [rising, partial curve, poor fit]"}, {"smiles": "CCOC(=O)N1CCN(C(C)C(=O)c2c[nH]c3ccccc23)CC1", "note": "(configuration not stated)", "AC50": "6.31 µM [rising, partial curve, poor fit]"}, {"smiles": "CC[C@@]1(O)C(=O)OCc2c1cc1n(c2=O)Cc2cc3ccccc3nc2-1", "AC50": "0.0794 µM [rising, full curve, poor fit]"}, {"smiles": "CC(C)c1ccc(O)c(CN2CCN(c3ccccc3)CC2)c1", "AC50": "25.1 µM [rising, single point]"}, {"smiles": "N[C@@H](Cc1c[nH]c2ccccc12)c1nnc(SCc2ccccc2)o1", "AC50": "3.16 µM [falling, single point]"}, {"smiles": "C/C=C1\\C[C@H](C)[C@](O)(CO)C(=O)OCC2=CCN3CC[C@@H](OC1=O)[C@@H]23", "AC50": "12.6 µM [falling, partial curve, poor fit]"}, {"smiles": "CC[C@@H]1CN2CCc3cc(OC)c(OC)cc3[C@H]2C[C@@H]1C[C@@H]1NCCc2cc(O)c(OC)cc21", "AC50": "1.26 µM [falling, full curve]"}, {"smiles": "Cc1c(C(=O)c2cccc3ccccc23)c2cccc3c2n1[C@H](CN1CCOCC1)CO3", "AC50": "12.6 µM [falling, single point]"}, {"smiles": "C1=C(c2c[nH]c3ccccc23)CCNC1", "AC50": "0.01 µM [falling, full curve]"}, {"smiles": "COc1ccc(OC)c(C2=NOC(C(=O)N3CCC4(CC3)OCCO4)C2)c1", "note": "(configuration not stated)", "AC50": "0.1 µM [falling, full curve, poor fit]"}, {"smiles": "CCCC/C(C)=C/[C@@H](NP(=O)(c1ccccc1)c1ccccc1)c1ccccc1", "AC50": "25.1 µM [falling, single point]"}, {"smiles": "COc1cc(CN2CCN(C(=O)COc3ccccc3)CC2)cc(OC)c1OC", "AC50": "5.01 µM [rising, single point]"}, {"smiles": "CCCC(C)C(=O)NC1CCSC1=O", "note": "(configuration not stated)", "AC50": "1 µM [falling, partial curve, poor fit]"}, {"smiles": "Oc1cccc2cccnc12", "AC50": "3.16 µM [falling, partial curve, poor fit]"}, {"smiles": "CCC(=NCc1ccc2c(c1)OCO2)c1c(O)n(C2CCCCC2)c(=O)[nH]c1=O", "AC50": "1.26 µM [rising, partial curve]"}, {"smiles": "Cc1ccccc1NC1=NCCCS1", "AC50": "3.98 µM [falling, single point]"}, {"smiles": "CC1N(P(=O)(c2ccccc2)c2ccccc2)CC(O)(c2ccccc2)CC12CC2", "note": "(configuration not stated)", "AC50": "25.1 µM [rising, single point]"}, {"smiles": "CN(C)C(=O)Oc1ccc(C(=O)c2ccccc2)cc1", "AC50": "0.794 µM [rising, single point]"}, {"smiles": "CN(CC1COc2ccccc2O1)c1nc(-c2cccnc2)nc2ccccc12", "note": "(configuration not stated)", "AC50": "12.6 µM [falling, partial curve]"}]}]}
